Reference: PubChem BioAssay AID2283364 (EPA ToxCast)
Inconclusive results, whose numbers are uncertain, are shown with a selection of clear calls. A potency beside an inconclusive call is a rough fit, not a confirmed value. The source made the active and inactive calls. The calls were made as follows: active = hit-call score of the fitted dose curve at least 0.9, where 1 is the maximum; inconclusive = response in the unintended direction; inactive = score below 0.9.

Chains of the proteins cited; added tags and fusions are not shown.
UniProt P62942, whole entry, looked up: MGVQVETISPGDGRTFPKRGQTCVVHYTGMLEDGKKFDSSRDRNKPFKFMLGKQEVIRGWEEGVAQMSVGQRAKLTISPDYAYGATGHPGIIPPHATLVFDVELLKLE

Biological target: human FK-506 Binding Protein (FKBP12), FKBP1A (gene 2280) (UniProt P62942)
Assay: NVS_OR_hFKBP12: NovaScreen (NVS) Nuclear Receptor Binding Assay for human FK-506 Binding Protein (FKBP12)
Protocol: NVS_OR_hFKBP12 is a biochemical, single-readout assay that uses extracted gene-proteins from E. coli in a cell-free assay. Measurements were taken 0.75 hour after chemical dosing in a 48-well plate.NVS_OR_hFKBP12 is one of one assay component(s) measured or calculated from the NVS_OR_hFKBP12 assay. It is designed to make measurements of radioligand binding, a form of binding reporter, as detected with scintillation counting signals by Filter-based radiodetection technology.Data from the assay component NVS_OR_hFKBP12 was analyzed into 1 assay endpoint. This assay endpoint, NVS_OR_hFKBP12, was analyzed in the positive analysis fitting direction relative to DMSO as the negative control and baseline of activity. Using a type of binding reporter, loss-of-signal activity can be used to understand changes in the binding as they relate to the gene FKBP1A. Furthermore, this assay endpoint can be referred to as a primary readout, because the performed assay has only produced 1 assay endpoint. To generalize the intended target to other relatable targets, this assay endpoint is annotated to the misc protein intended target family, where the subfamily is chaperone.
Binding assays used specific radioligands (tritiated, iodinated) with non-radioactive competitive displacement ligands in agonist or antagonist protocols (as indicated) and various reference compounds and inhibitors to titrate specific binding to receptors and transporters. Most enzyme assays (CYPs, kinases, phosphatases, proteases, HDACs) used recombinant protein and specific substrates (fluorescence mostly, some colorimetric and radioactive) and inhibitors, followed by a biochemical separation of substrate and product. All assays for the biochemical HTS were initially run in duplicate at a single concentration (10 uM for CYP450 assays and 25 uM for all others). Assay-chemical combinations meeting a pre-defined threshold (e.g., 30% inhibition and other criteria defined below) were then run in singleton concentration-response format with maximum concentration of 20 uM for CYPs and 50 uM for all others. Each assay was run with positive and negative controls, and concurrent controls on every plate. The follow-up (secondary) screen tested active chemical-pairs in concentration series, as well as a few additional assays not tested in the primary screen, some selected negative inactives, and several cases re-run in the concentration series for confirmatory purposes.

Compound | outcome | AC50
CCc1ccc(O)c(C(C)(C)C)c1 | inactive | –
CNC(C)=O | – | inconclusive: 25 µM
COC(=O)c1ccccc1S(=O)(=O)NC(=O)Nc1nc(OC(F)F)cc(OC(F)F)n1 | inactive | –
CCCCCCC(C=O)=Cc1ccccc1 | – | inconclusive: 0.7 µM
CCOC(=O)c1ccc(C2CCC(NC[C@H](O)COc3ccc(O)c(NS(C)(=O)=O)c3)CC2)cc1 (stereo partly specified) | – | inconclusive: 23.4 µM
CCCCCCOC(=O)CC(CC(=O)OCCCCCC)(OC(=O)CCC)C(=O)OCCCCCC | – | inconclusive: 25 µM
